The values that follow come from PubChem BioAssay AID602441 (National Center for Advancing Translational Sciences (NCATS), 2012).

The structures appear in SMILES notation. Among all 1,300 compounds or so, fewer than 10 were called active. Another 9% or so got no clear call; they are omitted. Calls follow the shape of the dose curve; as a rule, active = well fitted curve in the direction sought with a large enough effect; inconclusive = small, poorly fitted or top-dose-only effect, or another doubt; inactive = no such curve, though single readings can be large or run the other way. The list shows a part of the results.

The nature of this test: qHTS for antagonists of the Thyroid Stimulation Hormone Receptor: Hit Validation in Parental Cell Line. Also: 0% is about no effect. The conditions noted are these: parental HEK293 cells lacking TSHR, counter-screen; series mostly up to 56.9 µM; activity change, negative = inhibition: at the top concentration. The essentials: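 Counterscreen in untransfected parental HEK-EM 293 cells. Lysate cAMP displaces cAMP-d2 from cryptate-tagged anti-cAMP antibody, and homogeneous TR-FRET is read at 665 nm with 337 nm excitation after stimulation.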
`CCc1ccccc1NC(=O)CN1CCN(C(=O)CNC(=O)Cc2cccc3ccccc23)CC1`: the “activity change, negative = inhibition” value was inactive: -1.42%. Consider `NS(=O)(=O)c1ccc(CCNC(=O)c2cc3ccccc3s2)cc1`, for which the “activity change, negative = inhibition” value was inactive: 4.07%. Consider `CCc1nnc(NS(=O)(=O)c2ccc(NC(=O)COc3ccc4ccccc4c3)cc2)s1`, for which the “activity change, negative = inhibition” value was inactive: 2.91%. Take `Cc1ccc(-c2csc(N(CCO)CCCn3c(C(F)(F)F)nc4ccccc43)n2)cc1`: the “activity change, negative = inhibition” value was inactive: -1.09%. On to `CCOC(=O)c1[nH]c2cc(OC)c(OC)cc2c1NC(=O)c1ccc2c(c1)OCO2`, for which the “activity change, negative = inhibition” value is inactive: -2.56%. Turning to `N#Cc1nc(Cc2cccc3ccccc23)oc1NCc1ccc2c(c1)OCO2`, the “activity change, negative = inhibition” value was inactive: -0.416%. Take `CCN(c1ccc(OC)cc1)S(=O)(=O)c1cc(-c2cc(C)no2)ccc1C(C)C`: the “activity change, negative = inhibition” value was inactive: -0.725%. On to `O=S(=O)(Nc1cc(Cl)ccc1-n1cncn1)c1cc(Br)ccc1Br`, for which the “activity change, negative = inhibition” value was inactive: -8.15%.

Regarding `CC1CCc2c(sc(NC(=O)c3ccco3)c2C(=O)O)C1` (centres undefined), the “activity change, negative = inhibition” value is inactive: -9.53%.

`Cc1ccc(NC(=O)c2cccc(OCc3c(C)noc3C)c2)cc1S(=O)(=O)Nc1ccccc1Cl`: the “activity change, negative = inhibition” value was inactive: -4.87%. To `Cc1ccc(-c2nnc(SCC(=O)NC3CCCC3)n2C)cc1` belongs inactive: 0.0639%; to `Cc1c(Cl)sn(-c2ccc(Cl)cc2)c1=O`, inactive: -6.46%.

Turning to `COCCNC(=O)CN1C(=O)c2cccc3cccc1c23`, the “activity change, negative = inhibition” value is inactive: 5.65%. For `CC(C)C(C)NC(=O)COc1ccc(Sc2ccc(OCC(=O)NC(C)C(C)C)cc2)cc1` (centres undefined) the value was inactive: -0.802%. To `O=C1CCCN1c1ccc(S(=O)(=O)Oc2ccc(Cl)cc2)cc1[N+](=O)[O-]` belongs inactive: -5%.

As for `COc1ccc(S(=O)(=O)N2CCOC23CCN(C(=O)c2ccc(Cl)cc2Cl)CC3)cc1`, the “activity change, negative = inhibition” value was inactive: -0.861%.

On to `O=C(NCCCCc1ccccc1)NC[C@@H]1CC[C@@H](Cc2ccc(-c3ccccc3)cc2)O1`, for which the “activity change, negative = inhibition” value is inactive: -0.99%.

Consider `COc1cccc(CN(C)C(=O)c2ccc(OCC(=O)Nc3cccc(C(F)(F)F)c3)c(OC)c2)c1`, for which the “activity change, negative = inhibition” value is inactive: -2.52%. Take `Oc1ccc(Cl)cc1Cc1cc(Cl)ccc1O`: the “activity change, negative = inhibition” value is inactive: 0.71%. For `Cc1ccc(CNC(=O)c2ccccc2NS(=O)(=O)c2ccc(Cl)nc2)cc1` the value was inactive: 3.12%; for `CN(Cc1ccccc1Cl)C(=O)c1cc2ccccc2o1`, inactive: -0.037%. For the molecule `CN(C(=O)CN1C(=O)/C(=C/c2ccccc2Cl)SC1=S)C1CCS(=O)(=O)C1` (centres undefined), the “activity change, negative = inhibition” value was inactive: 0.836%. For `COc1ccc(OC)c(C2=NOC(C(=O)NCC3CCCO3)C2)c1` (centres undefined), the “activity change, negative = inhibition” value is inactive: 5.95%. As to `O=C(NCCC1=CCCCC1)C(=O)NCC1OCCCN1S(=O)(=O)c1ccccc1` (centres undefined), the “activity change, negative = inhibition” value was inactive: 3.03%. For `COc1cccc(CNC(=O)CCCC(=O)NC(C)CCc2ccccc2)c1` (centres undefined) the value was inactive: 0.179%. Consider `COc1ccc(N2CCN(C(c3nnnn3CCc3ccccc3)C(C)C)CC2)cc1` (centres undefined), for which the “activity change, negative = inhibition” value is inactive: -0.513%. As to `Cc1ccc(-c2nc3ccc(C(=O)O)cc3nc2-c2ccc(C)cc2)cc1`, the “activity change, negative = inhibition” value was inactive: -2.47%.

In the case of `CCC1CCCCN1S(=O)(=O)c1ccc(NC(=O)c2nc(S(C)(=O)=O)ncc2Cl)cc1` (centres undefined), the “activity change, negative = inhibition” value was inactive: -9.43%. Take `CCCNc1c(NS(=O)(=O)c2ccc(Br)cc2)c(=O)oc2ccccc12`: the “activity change, negative = inhibition” value is inactive: 3.82%.

With `COc1ccccc1C1CCN(c2cc(O)ccc2[N+](=O)[O-])CC1`, the “activity change, negative = inhibition” value was inactive: 0.193%. Turning to `CCOC(=O)c1c(NC(=O)CN2C(=O)NC(C)(c3ccc(OC(F)F)cc3)C2=O)sc(C)c1C` (centres undefined), the “activity change, negative = inhibition” value was inactive: 1.99%.

`Cc1ccc(NC(=O)CCc2nnc3ccc(NCc4ccco4)nn23)nc1`: the “activity change, negative = inhibition” value is inactive: 6.29%. As to `COc1ccc(Cl)cc1NC(=O)C1CCN(C(=O)C2CC(=O)N(c3ccc(C)cc3)C2)CC1` (centres undefined), the “activity change, negative = inhibition” value is inactive: 3.1%. Turning to `O=C(NNC(=O)c1n[nH]c(=O)c2ccccc12)c1ccc(Br)cc1`, the “activity change, negative = inhibition” value was inactive: 0.78%. As for `CC(=O)N1c2ccc(S(=O)(=O)N(C)CC(=O)N(C)Cc3ccccc3)cc2CC1C` (centres undefined), the “activity change, negative = inhibition” value was inactive: 5.15%. Turning to `Cc1ccc(S(=O)(=O)NCCNc2ccc([N+](=O)[O-])cc2)cc1`, the “activity change, negative = inhibition” value is inactive: 1.78%. `COc1cc(OC)c(NC(=O)Cn2cnc3sc(C)c(S(=O)(=O)N4CCOCC4)c3c2=O)cc1Cl`: the “activity change, negative = inhibition” value is inactive: 0.564%. For `COC(=O)CN(c1ccc(C)cc1)S(=O)(=O)c1ccc2c(c1)n(C)c(=O)c(=O)n2C` the value was inactive: 3.7%. With `O=C(COC(=O)C12CC3CC(CC(Br)(C3)C1)C2)Nc1cccc(S(=O)(=O)N2CCOCC2)c1`, the “activity change, negative = inhibition” value is inactive: -3.32%.

Consider `CCOc1ccc(CNC(=O)CCCn2nc(CC)n3c(cc4occc43)c2=O)cc1`, for which the “activity change, negative = inhibition” value was inactive: 3.35%. In the case of `O=S(=O)(NCc1csc(-c2ccccc2)n1)c1ccc(Cl)s1`, the “activity change, negative = inhibition” value is inactive: 3.27%. On to `COc1cc(/C=C(\C#N)c2ccccn2)ccc1OCc1ccc(Cl)cc1`, for which the “activity change, negative = inhibition” value was inactive: -3.7%. For `CCC1Sc2ccc(S(=O)(=O)CCC(=O)Nc3ccccc3Cl)cc2NC1=O` (centres undefined) the value was inactive: 2.79%; for `COC(=O)c1ccc(CN2C(=O)NC(Cc3c[nH]c4ccccc34)C2=O)cc1` (centres undefined), inactive: 2.98%.

Take `Cc1ccc(C(=O)NCCNc2ncc(C(F)(F)F)cc2Cl)cc1[N+](=O)[O-]`: the “activity change, negative = inhibition” value was inactive: 2.51%. For `Cc1ccc(S(=O)(=O)Oc2ccc(/C=C(/NC(=O)c3ccccc3)C(=O)Nc3ccccc3)cc2)cc1`, the “activity change, negative = inhibition” value was inactive: 1.91%.

In the case of `O=S(=O)(c1ccc(Cl)cc1)N1CCN(c2ncnc3sccc23)CC1`, the “activity change, negative = inhibition” value is inactive: -4.26%. In the case of `Brc1ccc(CNc2ccc3ncccc3c2)cc1`, the “activity change, negative = inhibition” value is inactive: 0.294%. `CCN1C(=NCc2ccc(OC)cc2)N[C@@H](CCc2ccccc2)[C@H](C(=O)NCc2ccc(OC)cc2)[C@H]1C`: the “activity change, negative = inhibition” value is inactive: -1.38%.
